Among the data in patent US20230312680A1 are binding values, retold here.

For experiment [1], the target named is HLA-A*24:02 (human). The experiment in a line: UV-ligand exchange, b2m ELISA; grade of exchange yield. A general note: ELISA stands for enzyme-linked immunosorbent assay.
The target of experiment [2] is HLA-A*01:01 (human). The experiment is described as above.
Experiment [3] has as its target HLA-B*08:01 (human). Description: b2m dissociation at 37 C; grade of mean half-life.

Results are given in words; binding and its absence hold for the method and conditions named. A result given as binding can be weak or reduced; the word gives no strength. Ends that are not written are not given here.

As for RFTTMLSTF [… (SEQ ID No 17)], the binding entry in experiment [1] was “binds”.

Take VYNHTTRPL [… (SEQ ID No 81)]: the binding result in experiment [1] is on record as “binds”.

For DMDEEIEAEY [… (SEQ ID No 290)], the binding result in experiment [2] is given as “binds”.

RYGPVFTV [RYGPVFTV (SEQ ID No 77)]: the binding result in experiment [1] was “binds”.

Consider ETIRSVGYY [… (SEQ ID No 291)], for which the binding result in experiment [2] is reported as “binds”.

Regarding SFAPRSAVF [… (SEQ ID No 78)], the binding entry in experiment [1] is “binds”.

For the molecule IYSPQFSRL [… (SEQ ID No 16)], the binding entry in experiment [1] is listed as “binds”.

In the case of TAYMVSVAAF [… (SEQ ID No 80)], the binding result in experiment [1] is “binds”.

In the case of NVTMKVVSVLY [… (SEQ ID No 292)], the binding entry in experiment [2] was “binds”.

Consider VYHDDKQPTF [… (SEQ ID No 15)], for which, in experiment [1], the binding result is listed as “binds”.

KYPVHIYRL [… (SEQ ID No 18)]: the binding entry in experiment [1] is “binds”.

Take RYLAVVHAVF [… (SEQ ID No 246)]: the binding result in experiment [1] is reported as “binds”.

As to SPVTSVHGGTY [… (SEQ ID No 288)], the binding entry in experiment [2] is on record as “binds”.

As for YLLEKSRVI [… (SEQ ID No 170)], the binding result in experiment [3] is on record as “binds”.

Take TPKLRETSI [… (SEQ ID No 166)]: the binding result in experiment [3] is “binds”.

For LLDEGAMLLY [… (SEQ ID No 31)], the binding entry in experiment [2] is reported as “binds”.

In the case of VYTFLSSTL [… (SEQ ID No 13)], the binding entry in experiment [1] is “binds”.

Regarding KYEKIFEML [… (SEQ ID No 12)], the binding entry in experiment [1] is given as “binds”.

Turning to FYFPTPTVL [… (SEQ ID No 14)], in experiment [1], the binding entry is on record as “binds”.

Regarding FVDNQYWRY [… (SEQ ID No 115)], the binding entry in experiment [2] was “binds”.

As for KYVAELSLL [… (SEQ ID No 76)], the binding result in experiment [1] is “binds”.

As for KLKERNREL [… (SEQ ID No 172)], the binding entry in experiment [3] is listed as “binds”.

Regarding SYSDLHYGF [… (SEQ ID No 11)], the binding entry in experiment [1] is on record as “binds”.

Regarding TSMPRSSAM [… (SEQ ID No 169)], the binding result in experiment [3] is reported as “binds”.

Consider TVTGAEQIQY [… (SEQ ID No 112)], for which the binding result in experiment [2] was “binds”.

Consider SYFRGFTLI [… (SEQ ID No 82)], for which the binding result in experiment [1] is “binds”.

Consider VFVSFSSLF [… (SEQ ID No 255)], for which the binding entry in experiment [1] was “binds”.

Turning to LYQPRASEM [… (SEQ ID No 252)], the binding entry in experiment [1] was “binds”.

Take RYSDSVGRVSF [… (SEQ ID No 10)]: the binding entry in experiment [1] is “binds”.

On to MYKMKKPI [MYKMKKPI (SEQ ID No 394)], for which the binding result in experiment [3] is “binds”.

Turning to QLDSNRLTY [… (SEQ ID No 113)], the binding result in experiment [2] is recorded as “binds”.

For the molecule SYNEHWNYL [… (SEQ ID No 79)], the binding entry in experiment [1] is reported as “binds”.

As for VLLDEGAMLLY [… (SEQ ID No 116)], the binding entry in experiment [2] is reported as “binds”.

Regarding VMEQSAGIMY [… (SEQ ID No 114)], the binding result in experiment [2] is reported as “binds”.

On to TSHERLTTL [… (SEQ ID No 167)], for which the binding entry in experiment [3] was “binds”.

For KYVKVFHQF [… (SEQ ID No 19)], the binding entry in experiment [1] is “binds”.

Consider RWEKTDLTY [… (SEQ ID No 289)], for which the binding entry in experiment [2] was “binds”.

In the case of VYTPTLGTL [… (SEQ ID No 249)], in experiment [1], the binding result is recorded as “binds”.

Take FAFRKEAL [FAFRKEAL (SEQ ID No 171)]: the binding entry in experiment [3] is given as “binds”.
